# Screening data

Data taken from PubChem BioAssay AID912, deposited by NCATS (2007).

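Uptake of anthrax lethal toxin into cultured cells, read by FRET (460/530 nm ratio) and reported from the 460 nm channel; the cell line is not named here. Each compound was tested as a concentration series from about 0.0005 to 40 µM. The number is the fitted AC50 of the 460 nm signal alone; lower values mean a more potent effect. A falling signal goes with compounds filed as inhibitors or cytotoxic, a rising one with activators or fluorescent compounds (inferred from the filed classes).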

Values are in µM. Common to all entries: measured here: 460 nm channel. This is a side read-out of the assay, for part of the compounds, not drawn at random. Potencies fitted to partial, single-point or poorly fitting curves are rough. The first word of each remark tells which way the curve ran; it can be opposite to the aim of the assay.

| # | compound | AC50 (µM) | curve |
|---|---|---|---|
| 1 | `CC(C)CN1CC[C@@]2(CCCN(C(=O)Oc3ccccc3)C2)C1` | 5.012 | rising, partial curve |
| 2 | `C=CCN(CC=C)CC(O)Cn1c2ccccc2c2ccccc21` (configuration not stated) | 12.59 | falling, partial curve |
| 3 | `Cc1c2ccncc2c(C)c2c1[nH]c1ccccc12` | 5.012 | falling, full curve |
| 4 | `CCC(=O)N1c2ccccc2-c2nnc(SC)nc2OC1c1ccc(N(C)C)cc1` (configuration not stated) | 19.95 | rising, partial curve, poor fit |
| 5 | `CC(C)CN1CCCC2(CCN(C(=O)c3cnccn3)CC2)C1` | 12.59 | rising, partial curve |
| 6 | `CCOC(=O)c1ccccc1NC(=O)c1c(F)c(F)c(F)c(F)c1F` | 12.59 | rising, partial curve |
| 7 | `COc1ccccc1CN1CCCC2(CCNCC2)C1` | 7.943 | falling, partial curve |
| 8 | `CC1CCN(C(=O)N[C@@H](Cc2ccccc2)C(=O)O)CC1` | 5.012 | falling, single point |
| 9 | `C[C@@H]1CC2(OC(O)[C@]3(C)O[C@H]23)O[C@H]2C[C@@]3(C)[C@@H]4CC[C@H]5C(C)(C)C(O[C@@H]6OC[C@@H](O)[C@H](O)[C@H]6O)CC[C@@]56C[C@@]46CC[C@]3(C)[C@@H]12` (some centres not stated) | 0.3162 | rising, full curve |
| 10 | `Nc1ccc(Cl)cc1Cl` | 0.5012 | falling, full curve, poor fit |
| 11 | `COc1ccc(-c2nc(C#N)c(N3CCOCC3)o2)cc1OC` | 0.3981 | falling, full curve |
| 12 | `CN(N=O)C(=O)N[C@H]1[C@@H](O)[C@H](O)[C@H](CO)O[C@@H]1O` | 1 | falling, single point |
| 13 | `COc1ccc(-c2nc(CS(=O)CC(=O)N3CCc4ccccc4C3)c(C)o2)cc1` (configuration not stated) | 12.59 | rising, partial curve |
| 14 | `O=C(C1CCN(S(=O)(=O)c2cccc3nsnc23)CC1)N1CCn2c1nc1ccccc12` | 5.012 | falling, single point |
| 15 | `O=C(O)Cn1cccc1C(=O)c1ccccc1` | 0.05012 | rising, full curve, poor fit |
| 16 | `COc1ccc(CC(=O)Nc2cc(Cl)ccc2O)cc1` | 5.012 | rising, single point |
| 17 | `CCN1C[C@@]2(COC)[C@H](O)C[C@H](OC)[C@@]34[C@@H]5C[C@@]6(O)[C@H](OC(=O)c7ccccc7)[C@H]5[C@@](OC(C)=O)([C@H]([C@@H](OC)[C@H]23)[C@H]14)[C@H](O)[C@@H]6OC` | 31.62 | falling, single point |
| 18 | `O=C1N(CCCN2C(=O)C3(OCCO3)c3ccccc32)c2ccccc2C12OCCO2` | 25.12 | rising, single point |
| 19 | `CCOc1ccc(CCNC(=O)C2CCN(c3nnc(-n4cccc4)s3)CC2)cc1OCC` | 1 | rising, full curve |
| 20 | `Cc1ccc2c(c1)c1ncnc(N3CCC4(CC3)OCCO4)c1n2C` | 6.31 | rising, partial curve, poor fit |
| 21 | `O=C(c1ccco1)N1CCC[C@@]2(CCN(Cc3ccccc3)C2)C1` | 5.012 | falling, single point |
| 22 | `Cc1ccc(N2C(=O)c3ccc(C(=O)N4CCN(c5ccccc5F)CC4)cc3C2=O)cc1` | 12.59 | falling, single point |
| 23 | `COc1cccc(-c2nn(C)c3sc(C(=O)Nc4ccc5c(c4)OCCO5)cc23)c1` | 3.162 | falling, full curve |
| 24 | `O=C(c1ccco1)N1CCN(c2ncnc3c2[nH]c2ccc(Br)cc23)CC1` | 7.943 | falling, partial curve |
| 25 | `CC(C)CCNC(=O)NC(=O)CSc1nnc2ccccn12` | 31.62 | rising, single point |
| 26 | `O=C1C=CC(=O)C2=C1C1c3ccccc3C2c2ccccc21` | 15.85 | falling, partial curve |
| 27 | `CN(C)c1oc(-c2ccccc2)nc1C#N` | 0.003162 | falling, full curve, poor fit |
| 28 | `CC12CCC(c3c(C(=O)Nc4nccs4)nn(-c4ccccc4)c31)C2(C)C` (configuration not stated) | 12.59 | rising, single point |
| 29 | `Sc1ccc2ccccc2c1CNCc1ccccc1` | 0.01585 | falling, full curve, poor fit |
| 30 | `Cc1ccc(S(=O)(=O)n2nc(C)c(Br)c2C)c(C)c1C` | 12.59 | falling, partial curve |
| 31 | `Cc1ccc(C(=O)N2CCCC2)cc1S(=O)(=O)Nc1ccccc1` | 2.512 | falling, full curve, poor fit |
| 32 | `Cc1csc2nnc(N)n12` | 1.585 | rising, partial curve |
| 33 | `CCOC(=O)C(NS(=O)(=O)c1ccc(Br)cc1)C(C)C` (configuration not stated) | 0.003981 | falling, full curve, poor fit |
| 34 | `CCC(C)(C)NC(=O)CN(C(=O)c1snc(C(N)=O)c1N)c1ccc2c(c1)OCO2` | 10 | rising, single point |
| 35 | `CSc1ccccc1NC(=O)c1c(C)noc1C` | 25.12 | rising, single point |
| 36 | `COCCn1c(=O)c(-c2cccc(C#N)c2)nc2cnc(Nc3ccccc3)nc21` | 10 | rising, partial curve |
| 37 | `CCNc1ncc2nc(-c3ccc(Cl)cc3)c(=O)n(-c3ccccc3)c2n1` | 5.012 | rising, partial curve |
| 38 | `CCOC(=O)C1C(=O)OC2(CCCC2)C1C(=O)OCC` (configuration not stated) | 1.995 | rising, single point |
| 39 | `CCOC(=O)C1CCCN(C(=O)c2ccc(CS(=O)(=O)Cc3ccccc3C)o2)C1` (configuration not stated) | 10 | rising, partial curve |
| 40 | `CN(C)CC[C@@H](c1ccccc1)c1ccccn1` | 0.2512 | falling, full curve |
| 41 | `COc1ccc(C2C(C(C)=O)=C(C)Nc3ncnn32)cc1OC` (configuration not stated) | 0.1 | rising, full curve, poor fit |
| 42 | `CCN(CC)S(=O)(=O)N1CCC(C(=O)NC2CCCc3ccccc32)CC1` (configuration not stated) | 0.07943 | falling, full curve |
| 43 | `COCCn1c(=O)c2c(nc3n2CCN3c2ccc(C)cc2)n(C)c1=O` | 0.2512 | rising, full curve, poor fit |
| 44 | `COc1ccc2nc3c(c(-c4ccccc4)c2c1)CCC3` | 15.85 | falling, partial curve |
| 45 | `COC(=O)N1CCC[C@@]2(CCN(c3ccccn3)C2)C1` | 25.12 | rising, single point |
| 46 | `CCCc1ccc(Oc2c(-c3ccc(O)c(C)c3O)n[nH]c2C)cc1` | 25.12 | falling, single point |
| 47 | `COCCn1c(SCC(=O)NCCc2ccccc2)nnc1-c1ccco1` | 1 | rising, full curve, poor fit |
| 48 | `O=C1CC(N2CC=C(c3ccccc3)CC2)C(=O)N1c1ccc(F)cc1` (configuration not stated) | 31.62 | falling, single point |
| 49 | `O=C(C1CCCCC1)N1CCN(S(=O)(=O)c2ccc(Cl)cc2)CC1` | 12.59 | rising, partial curve |
| 50 | `N#C/C(=C\c1cccs1)Sc1nc2ccccc2s1` | 25.12 | rising, partial curve |
| 51 | `C=C1C(CCl)(CCl)C2(Cl)C(Cl)C(Cl)C1(Cl)C2(Cl)Cl` (configuration not stated) | 31.62 | falling, partial curve, poor fit |
| 52 | `O=c1c2ccccc2sc2c(CO)ccc(NCCN3CCCCC3)c12` | 0.7943 | falling, single point |
| 53 | `COc1ccccc1CN1CCC2(CC1)CCN(C(=O)c1c(C)noc1C)CC2` | 7.943 | falling, partial curve |

Repeated from the top, 5 entries:

compound	AC50 (µM)	curve
CC(C)CN1CC[C@@]2(CCCN(C(=O)Oc3ccccc3)C2)C1	5.012	rising, partial curve
C=CCN(CC=C)CC(O)Cn1c2ccccc2c2ccccc21 (configuration not stated)	12.59	falling, partial curve
Cc1c2ccncc2c(C)c2c1[nH]c1ccccc12	5.012	falling, full curve
CCC(=O)N1c2ccccc2-c2nnc(SC)nc2OC1c1ccc(N(C)C)cc1 (configuration not stated)	19.95	rising, partial curve, poor fit
CC(C)CN1CCCC2(CCN(C(=O)c3cnccn3)CC2)C1	12.59	rising, partial curve